Taken from: PubChem BioAssay AID1224830 (NIAID, 2016)
Screen: 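Host factors that control LPS-induced TNF expression in human macrophages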 (primary screen). Cell system: human THP-1 monocytic leukaemia cells, TNF dual-luciferase reporter clone, PMA-differentiated to macrophage-like cells. Knock-down reagent: siRNA pool against human genes, 50 nM. Time to read-out: LPS for 4 h, given about 3 days after siRNA transfection. Conditions: bacterial LPS (TLR4 ligand), 10 ng/ml. Measured: 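Ratio of firefly to renilla light, scaled to the plate median and expressed as a robust z-score per replicate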. Reading the numbers: TNF reporter robust z-score: higher = stronger TNF reporter response to LPS. Hit rule: 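Each well counts as active if its z-score is over 2.8 or under -1.5; controls are left without a call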.
The whole screen tested about 18,000 reagents; this is a random part of them. About 2,900 of all reagents (16%) count as active. 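Calls are made per well; low scores hint the gene aids the LPS response, high scores that it dampens it.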 Repeated entries: four replicate wells of each siRNA pool. Reagent sequences are not shown.

gene symbol	PubChem SID	TNF reporter robust z-score	outcome
NSD1	SID315458891	-0.05	inactive
NSD1	SID315458891	0.71	inactive
NSD1	SID315458891	-1.28	inactive
NSD1	SID315458891	-0.42	inactive
THEM5	SID315463789	0.1	inactive
THEM5	SID315463789	1.16	inactive
THEM5	SID315463789	2.27	inactive
THEM5	SID315463789	-1.09	inactive
ZNF397	SID315460317	-0.35	inactive
ZNF397	SID315460317	0.1	inactive
ZNF397	SID315460317	-1	inactive
ZNF397	SID315460317	0.16	inactive
ELP3	SID315457437	-1.17	inactive
ELP3	SID315457437	0.82	inactive
ELP3	SID315457437	0.83	inactive
ELP3	SID315457437	2.07	inactive
CBX4	SID315452635	0.16	inactive
CBX4	SID315452635	0.83	inactive
CBX4	SID315452635	1.26	inactive
CBX4	SID315452635	0.89	inactive

Next part, starting with the last 4 of the part before.
gene symbol	PubChem SID	TNF reporter robust z-score	outcome
CBX4	SID315452635	0.16	inactive
CBX4	SID315452635	0.83	inactive
CBX4	SID315452635	1.26	inactive
CBX4	SID315452635	0.89	inactive
TECTB	SID315451805	-1.99	active
TECTB	SID315451805	-1.52	active
TECTB	SID315451805	1.38	inactive
TECTB	SID315451805	-0.26	inactive
KLHL34	SID315463559	-0.14	inactive
KLHL34	SID315463559	-0.48	inactive
KLHL34	SID315463559	-0.9	inactive
KLHL34	SID315463559	-1.36	inactive
FRMD1	SID315459604	0.57	inactive
FRMD1	SID315459604	0.65	inactive
FRMD1	SID315459604	0.17	inactive
FRMD1	SID315459604	0.16	inactive
SLC35D2	SID315454559	-1.42	inactive
SLC35D2	SID315454559	-1.14	inactive
SLC35D2	SID315454559	-0.79	inactive
SLC35D2	SID315454559	-0.62	inactive
KLHL1	SID315458511	1.44	inactive
KLHL1	SID315458511	1.4	inactive
KLHL1	SID315458511	2.63	inactive
KLHL1	SID315458511	0	inactive
RMDN2	SID315462492	-0.83	inactive
RMDN2	SID315462492	2.42	inactive
RMDN2	SID315462492	1.13	inactive
RMDN2	SID315462492	-1.02	inactive
VN1R5	SID315463934	0.97	inactive
VN1R5	SID315463934	1.47	inactive
VN1R5	SID315463934	1.32	inactive
VN1R5	SID315463934	0.93	inactive
